# Source: US20090098596A1, “PHOTOSTABLE FRET-COMPETENT BIARSENICAL-TETRACYSTEINE PROBES BASED ON FLUORINATED FLUORESCEINS” (priority 2006, published 2009)
# For at least one compound, name, drawing or mass did not settle the structure.
# Assay: Fluorescence lifetimes by TCSPC
# Format: physicochemical
# Settings: 20 mM buffer HEPES, pH 7.4
# Protocol: Absorption and fluorescence spectra were measured with a UVIKON 943 Double Beam UV/Vis absorption spectrophotometer and with a Perkin Elmer LS50B fluorescence spectrophotometer, respectively. Lifetime measurements were made by TCSPC in a Horiba Jobin Yvon IBH Fluorescence Lifetime Spectrometer System. The excitation source at 495 nm was a NanoLED N-01 Aqua and the detection module was TBX-04-A. Irradiation was carried out using a Superlite SUV-DC-P system incorporating a 200W DC Super-Pressure short arc lamp coupled to a light guide for high UV transmission and an electronic timer for exposure time control (Lumatec GmbH,
# The fluorescence lifetimes of the complexes obtained as described in section 3.1, were determined by TCSPC. The corresponding values for each parent fluorescein were also determined in 20 mM buffer HEPES, pH 7.4 for comparison.
smiles,measurement,value
O=C1OC2(c3ccc(O)cc3Oc3cc(O)ccc32)c2ccccc21 [Fluorescein],"t (fluorescence lifetime), parent fluorophore",4.07 ns
